Experimental data: paper PMC9733332
No constants are given. Whether binding was seen depends on the method and setting. In cells and extracts the contact can be indirect. Some entries that bind do so weakly or less than the wild type.

By UniProt entry, the sequences of proteins in these tests, tags left out. Residues count along the entry.
GFP-TDP-CTF (25-kDa C-terminal fragment of TDP-43, 208–414) (Q13148, residues 208-414): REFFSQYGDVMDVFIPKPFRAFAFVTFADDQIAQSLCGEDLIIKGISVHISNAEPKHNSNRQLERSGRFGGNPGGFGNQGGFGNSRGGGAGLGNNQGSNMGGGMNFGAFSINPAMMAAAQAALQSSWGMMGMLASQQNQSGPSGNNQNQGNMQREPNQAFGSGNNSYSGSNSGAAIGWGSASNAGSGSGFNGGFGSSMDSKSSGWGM
GFP-TDP-PrLD (prion-like domain of TDP-43, aa275–414) (Q13148, residues 275-414): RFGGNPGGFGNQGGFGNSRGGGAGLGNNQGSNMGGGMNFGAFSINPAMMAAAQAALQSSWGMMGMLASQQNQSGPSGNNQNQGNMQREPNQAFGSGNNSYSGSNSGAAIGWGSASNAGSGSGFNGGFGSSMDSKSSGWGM
UniProt P37198: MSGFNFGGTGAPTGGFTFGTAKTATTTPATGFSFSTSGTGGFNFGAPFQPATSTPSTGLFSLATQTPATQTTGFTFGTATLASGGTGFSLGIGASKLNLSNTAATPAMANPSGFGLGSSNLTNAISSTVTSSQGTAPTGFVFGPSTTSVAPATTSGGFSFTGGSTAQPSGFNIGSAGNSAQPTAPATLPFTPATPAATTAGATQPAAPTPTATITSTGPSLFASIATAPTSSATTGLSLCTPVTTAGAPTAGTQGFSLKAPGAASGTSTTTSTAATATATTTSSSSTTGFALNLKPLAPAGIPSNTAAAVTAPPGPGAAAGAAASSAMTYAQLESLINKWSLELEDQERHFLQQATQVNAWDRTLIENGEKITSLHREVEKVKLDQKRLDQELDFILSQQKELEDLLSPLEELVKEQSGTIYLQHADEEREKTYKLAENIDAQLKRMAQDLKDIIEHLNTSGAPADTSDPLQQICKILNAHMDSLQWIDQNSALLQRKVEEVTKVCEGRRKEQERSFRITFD
UniProt P52948, residues 1-880: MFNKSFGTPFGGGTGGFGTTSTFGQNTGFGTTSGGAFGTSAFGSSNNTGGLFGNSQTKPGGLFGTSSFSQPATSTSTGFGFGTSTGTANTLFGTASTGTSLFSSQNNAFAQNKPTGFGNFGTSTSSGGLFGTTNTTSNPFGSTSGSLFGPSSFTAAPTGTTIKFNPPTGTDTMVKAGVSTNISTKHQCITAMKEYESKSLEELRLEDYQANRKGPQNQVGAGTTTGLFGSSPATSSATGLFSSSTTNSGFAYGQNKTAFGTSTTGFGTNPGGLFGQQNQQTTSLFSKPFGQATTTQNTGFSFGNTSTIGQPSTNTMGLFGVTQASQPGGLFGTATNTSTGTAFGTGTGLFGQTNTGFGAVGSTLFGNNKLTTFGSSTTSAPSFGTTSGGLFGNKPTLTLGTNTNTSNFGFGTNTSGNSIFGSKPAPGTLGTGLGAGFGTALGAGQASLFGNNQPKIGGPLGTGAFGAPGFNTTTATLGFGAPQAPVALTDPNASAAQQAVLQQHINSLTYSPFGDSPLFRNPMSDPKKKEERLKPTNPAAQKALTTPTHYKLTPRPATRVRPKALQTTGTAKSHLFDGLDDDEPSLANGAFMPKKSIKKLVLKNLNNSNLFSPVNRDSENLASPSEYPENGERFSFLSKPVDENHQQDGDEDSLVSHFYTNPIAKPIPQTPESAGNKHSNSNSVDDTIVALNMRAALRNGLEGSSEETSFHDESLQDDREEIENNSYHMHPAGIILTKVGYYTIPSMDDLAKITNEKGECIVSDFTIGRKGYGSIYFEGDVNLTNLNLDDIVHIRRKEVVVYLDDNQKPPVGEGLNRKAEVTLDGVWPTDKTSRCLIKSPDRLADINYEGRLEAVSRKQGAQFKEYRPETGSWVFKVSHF

How the values were obtained:
[1] = molecular target: GFP-TDP-CTF (25-kDa C-terminal fragment of TDP-43, 208–414) (human) (UniProt Q13148); assay: co-IP; GFP-Trap magnetic beads on lysates of HEK293T cells expressing GFP-tagged TDP-43 constructs (bait); endogenous partners detected by western blot (called pull-down in the text for TDP-PrLD)
[2] = molecular target: GFP-TDP-PrLD (prion-like domain of TDP-43, aa275–414) (human) (UniProt Q13148); assay: as above

| binding [1] | binding [2] | Substance |
| --- | --- | --- |
| binds | binds | Nup62 (endogenous) (from UniProt P37198 1-522) |
| binds | binds | Nup98 (endogenous) (from UniProt P52948 1-880) |
